# Values quoted from earlier work, collected in PMC7823661 (Viruses, 2020).
# Tested on: P. falciparum W2-chloroquine-resistant clone
# Settings: in vitro, read-out: IC50 antiplasmodial; cited from earlier work
smiles,measurement,value
CCN(CC)CCCC(C)Nc1ccnc2cc(Cl)ccc12 (stereo not shown) [chloroquine],IC50,460 nM
